Results are given in words; binding and its absence hold for the method and conditions named. Some results given as binding are weak or reduced against the parent protein; the word gives no strength.
What was measured:
[1] = molecular target: human beta-Klotho (KLB) (human) (UniProt Q86Z14); experiment: SPR on human KLB; koff (panel C), mean +/- SEM, n=3
[2] = molecular target: human beta-Klotho (KLB) (human) (UniProt Q86Z14); experiment: SPR on human KLB; koff (panel C) and KD (panel D), mean +/- SEM, n=3 [D]

Amino acid sequences for entries named in this document (tags omitted). Residues count along the entry.
UniProt Q86Z14, residues 53-997: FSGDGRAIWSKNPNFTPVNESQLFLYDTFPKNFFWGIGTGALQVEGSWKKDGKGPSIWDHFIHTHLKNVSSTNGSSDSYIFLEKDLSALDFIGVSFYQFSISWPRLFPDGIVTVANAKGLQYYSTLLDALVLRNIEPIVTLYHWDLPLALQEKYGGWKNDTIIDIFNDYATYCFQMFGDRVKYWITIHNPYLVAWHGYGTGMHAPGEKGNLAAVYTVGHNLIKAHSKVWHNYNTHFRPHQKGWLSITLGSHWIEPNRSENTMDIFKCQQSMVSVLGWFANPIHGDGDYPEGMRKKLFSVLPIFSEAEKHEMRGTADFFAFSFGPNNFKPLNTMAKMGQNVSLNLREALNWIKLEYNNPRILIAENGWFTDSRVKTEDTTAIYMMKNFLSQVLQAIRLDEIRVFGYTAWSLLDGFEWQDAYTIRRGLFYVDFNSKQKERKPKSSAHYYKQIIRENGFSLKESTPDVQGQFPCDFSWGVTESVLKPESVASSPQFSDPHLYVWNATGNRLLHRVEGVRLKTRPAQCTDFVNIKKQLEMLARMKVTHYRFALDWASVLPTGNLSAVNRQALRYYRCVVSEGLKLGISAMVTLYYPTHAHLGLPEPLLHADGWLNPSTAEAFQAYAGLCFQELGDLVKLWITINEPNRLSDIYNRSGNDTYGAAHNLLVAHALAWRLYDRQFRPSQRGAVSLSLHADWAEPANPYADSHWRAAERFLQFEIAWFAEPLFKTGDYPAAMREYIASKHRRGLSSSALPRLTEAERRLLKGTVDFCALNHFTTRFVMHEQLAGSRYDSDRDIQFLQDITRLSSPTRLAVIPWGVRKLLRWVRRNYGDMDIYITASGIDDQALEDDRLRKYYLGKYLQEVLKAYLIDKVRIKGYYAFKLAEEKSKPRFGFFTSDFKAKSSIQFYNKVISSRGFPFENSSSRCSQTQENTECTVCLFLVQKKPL

binding [1]	binding [2]	Binder
binds		Ab0340 (antibody, IgG4, V domains shown) VH: QVTLKESGPVLVKPTETLTLTCTVSGFSLNNARVGVSWIRQPPGKALEWLAHIFSNDEKSYSTSLKSRLTISKDTSKSQVVLTMTNMDPVDTATYYCARSVVTGGYYYEGMDVWGQGTTVTVSS VL: SYVLTQPPSVSVAPGQTARITCGGSNIGSESVHWYQQKPGQAPVLVVYAESDRPSGIPERFSGSNSGNTATLTISRVEAGDEADYYCQVWEGSSDHVVFGGGTKLTVLG
binds		Ab0360 (antibody, IgG4, V domains shown) VH: QVTLKESGPVLVKPTETLTLTCTVSGFSLNNARVGVSWIRQPPGKALEWLAHIFSNDEKSYSTSLKSRLTISKDTSKSQVVLTMTNMDPVDTATYYCARSVVTGGYYYEGMDVWGQGTTVTVSS VL: SYVLTQPPSVSVAPGQTARITCGGSNIGSESVHWYQQKPGQAPVLVVYEHSDRPSGIPERFSGSNSGNTATLTISRVEAGDEADYYCQVWEGSSDHVVFGGGTKLTVLG
binds		Ab0415 (antibody, IgG4, V domains shown) VH: QVTLKESGPVLVKPTETLTLTCTVSGFSLNNARVGVSWIRQPPGKALEWLAHIFSNDEKSYSTSLKSRLTISKDTSKSQVVLTMTNMDPVDTATYYCARSVVTGGYYYEGMDVWGQGTTVTVSS VL: SYVLTQPPSVSVAPGQTARITCGGSNIGSESVHWYQQKPGQAPVLVVYYESDRPSGIPERFSGSNSGNTATLTISRVEAGDEADYYCQVWAGESDHVVFGGGTKLTVLG
binds		Ab0364 (antibody, IgG4, V domains shown) VH: QVTLKESGPVLVKPTETLTLTCTVSGFSLNNARVGVSWIRQPPGKALEWLAHIFSNDEKSYSTSLKSRLTISKDTSKSQVVLTMTNMDPVDTATYYCARSVVTGGYYYEGMDVWGQGTTVTVSS VL: SYVLTQPPSVSVAPGQTARITCGGANIGSESVHWYQQKPGQAPVLVVYEESDRPSGIPERFSGSNSGNTATLTISRVEAGDEADYYCQVWEGSSDHVVFGGGTKLTVLG
	binds	Ab0338 (antibody, IgG4, V domains shown) VH: QVTLKESGPVLVKPTETLTLTCTVSGFSLNNARVGVSWIRQPPGKALEWLAHIFSNDEKSYSTSLKSRLTISKDTSKSQVVLTMTNMDPVDTATYYCARSVVTGGYYYEGMDVWGQGTTVTVSS VL: SYVLTQPPSVSVAPGQTARITCGGSNIGSESVHWYQQKPGQAPVLVVYSSSDRPSGIPERFSGSNSGNTATLTISRVEAGDEADYYCQVWAGSSDHVVFGGGTKLTVLG
	binds	Ab0358 (antibody, IgG4, V domains shown) VH: QVTLKESGPVLVKPTETLTLTCTVSGFSLNNARVGVSWIRQPPGKALEWLAHIFSNDEKSYSTSLKSRLTISKDTSKSQVVLTMTNMDPVDTATYYCARSVVTGGYYYEGMDVWGQGTTVTVSS VL: SYVLTQPPSVSVAPGQTARITCGGSNIGSESVHWYQQKPGQAPVLVVYEASDRPSGIPERFSGSNSGNTATLTISRVEAGDEADYYCQVWHGSSDHVVFGGGTKLTVLG
binds		Ab0332 (antibody, IgG4, V domains shown) VH: QVTLKESGPVLVKPTETLTLTCTVSGFSLNNARVGVSWIRQPPGKALEWLAHIFSNDEKSYSTSLKSRLTISKDTSKSQVVLTMTNMDPVDTATYYCARSVVTGGYYYEGMDVWGQGTTVTVSS VL: SYVLTQPPSVSVAPGQTARITCGGSNIGSESVHWYQQKPGQAPVLVVYSESDRPSGIPERFSGSNSGNTATLTISRVEAGDEADYYCQVWEGASDHVVFGGGTKLTVLG
	binds	Ab0352 (antibody, IgG4, V domains shown) VH: QVTLKESGPVLVKPTETLTLTCTVSGFSLNNARVGVSWIRQPPGKALEWLAHIFSNDEKSYSTSLKSRLTISKDTSKSQVVLTMTNMDPVDTATYYCARSVVTGGYYYEGMDVWGQGTTVTVSS VL: SYVLTQPPSVSVAPGQTARITCGGSNIGSESVHWYQQKPGQAPVLVVYEESDRPSGIPERFSGSNSGNTATLTISRVEAGDEADYYCQVWEGSSDHVVFGGGTKLTVLG
	binds	Ab0333 (antibody, IgG4, V domains shown) VH: QVTLKESGPVLVKPTETLTLTCTVSGFSLNNARVGVSWIRQPPGKALEWLAHIFSNDEKSYSTSLKSRLTISKDTSKSQVVLTMTNMDPVDTATYYCARSVVTGGYYYEGMDVWGQGTTVTVSS VL: SYVLTQPPSVSVAPGQTARITCGGSNIGSESVHWYQQKPGQAPVLVVYSYSDRPSGIPERFSGSNSGNTATLTISRVEAGDEADYYCQVWAGSSDHVVFGGGTKLTVLG
binds		Ab0345 (antibody, IgG4, V domains shown) VH: QVTLKESGPVLVKPTETLTLTCTVSGFSLNNARVGVSWIRQPPGKALEWLAHIFSNDEKSYSTSLKSRLTISKDTSKSQVVLTMTNMDPVDTATYYCARSVVTGGYYYEGMDVWGQGTTVTVSS VL: SYVLTQPPSVSVAPGQTARITCGGSNIGSESVHWYQQKPGQAPVLVVYAASDRPSGIPERFSGSNSGNTATLTISRVEAGDEADYYCQVWEGASDHVVFGGGTKLTVLG
	binds	Ab0353 (antibody, IgG4, V domains shown) VH: QVTLKESGPVLVKPTETLTLTCTVSGFSLNNARVGVSWIRQPPGKALEWLAHIFSNDEKSYSTSLKSRLTISKDTSKSQVVLTMTNMDPVDTATYYCARSVVTGGYYYEGMDVWGQGTTVTVSS VL: SYVLTQPPSVSVAPGQTARITCGGSNIGSESVHWYQQKPGQAPVLVVYEESDRPSGIPERFSGSNSGNTATLTISRVEAGDEADYYCQVWEGASDHVVFGGGTKLTVLG
binds		Ab0350 (antibody, IgG4, V domains shown) VH: QVTLKESGPVLVKPTETLTLTCTVSGFSLNNARVGVSWIRQPPGKALEWLAHIFSNDEKSYSTSLKSRLTISKDTSKSQVVLTMTNMDPVDTATYYCARSVVTGGYYYEGMDVWGQGTTVTVSS VL: SYVLTQPPSVSVAPGQTARITCGGSNIGSESVHWYQQKPGQAPVLVVYEESDRPSGIPERFSGSNSGNTATLTISRVEAGDEADYYCQVWAGSSDHVVFGGGTKLTVLG
binds		Ab0330 (antibody, IgG4, V domains shown) VH: QVTLKESGPVLVKPTETLTLTCTVSGFSLNNARVGVSWIRQPPGKALEWLAHIFSNDEKSYSTSLKSRLTISKDTSKSQVVLTMTNMDPVDTATYYCARSVVTGGYYYEGMDVWGQGTTVTVSS VL: SYVLTQPPSVSVAPGQTARITCGGSNIGSESVHWYQQKPGQAPVLVVYSESDRPSGIPERFSGSNSGNTATLTISRVEAGDEADYYCQVWAGESDHVVFGGGTKLTVLG
binds		Ab0326 (antibody, IgG4, V domains shown) VH: QVTLKESGPVLVKPTETLTLTCTVSGFSLNNARVGVSWIRQPPGKALEWLAHIFSNDEKSYSTSLKSRLTISKDTSKSQVVLTMTNMDPVDTATYYCARSVVTGGYYYEGMDVWGQGTTVTVSS VL: SYVLTQPPSVSVAPGQTARITCGGSNIGSESVHWYQQKPGQAPVLVVYYESDRPSGIPERFSGSNSGNTATLTISRVEAGDEADYYCQVWEGSSDHVVFGGGTKLTVLG
binds		Ab0344 (antibody, IgG4, V domains shown) VH: QVTLKESGPVLVKPTETLTLTCTVSGFSLNNARVGVSWIRQPPGKALEWLAHIFSNDEKSYSTSLKSRLTISKDTSKSQVVLTMTNMDPVDTATYYCARSVVTGGYYYEGMDVWGQGTTVTVSS VL: SYVLTQPPSVSVAPGQTARITCGGSNIGSESVHWYQQKPGQAPVLVVYAASDRPSGIPERFSGSNSGNTATLTISRVEAGDEADYYCQVWEGSSDHVVFGGGTKLTVLG
binds		Ab0361 (antibody, IgG4, V domains shown) VH: QVTLKESGPVLVKPTETLTLTCTVSGFSLNNARVGVSWIRQPPGKALEWLAHIFSNDEKSYSTSLKSRLTISKDTSKSQVVLTMTNMDPVDTATYYCARSVVTGGYYYEGMDVWGQGTTVTVSS VL: SYVLTQPPSVSVAPGQTARITCGGSNIGSESVHWYQQKPGQAPVLVVYESSDRPSGIPERFSGSNSGNTATLTISRVEAGDEADYYCQVWEGSSDHVVFGGGTKLTVLG
binds		Ab0357 (antibody, IgG4, V domains shown) VH: QVTLKESGPVLVKPTETLTLTCTVSGFSLNNARVGVSWIRQPPGKALEWLAHIFSNDEKSYSTSLKSRLTISKDTSKSQVVLTMTNMDPVDTATYYCARSVVTGGYYYEGMDVWGQGTTVTVSS VL: SYVLTQPPSVSVAPGQTARITCGGSNIGSESVHWYQQKPGQAPVLVVYEASDRPSGIPERFSGSNSGNTATLTISRVEAGDEADYYCQVWEGSSDHVVFGGGTKLTVLG
binds		Ab0416 (antibody, IgG4, V domains shown) VH: QVTLKESGPVLVKPTETLTLTCTVSGFSLNNARVGVSWIRQPPGKALEWLAHIFSNDEKSYSTSLKSRLTISKDTSKSQVVLTMTNMDPVDTATYYCARSVVTGGYYYEGMDVWGQGTTVTVSS VL: SYVLTQPPSVSVAPGQTARITCGGSNIGSESVHWYQQKPGQAPVLVVYYESDRPSGIPERFSGSNSGNTATLTISRVEAGDEADYYCQVWEGESDHVVFGGGTKLTVLG
	binds	Ab0417 (antibody, IgG4, V domains shown) VH: QVTLKESGPVLVKPTETLTLTCTVSGFSLNNARVGVSWIRQPPGKALEWLAHIFSNDEKSYSTSLKSRLTISKDTSKSQVVLTMTNMDPVDTATYYCARSVVTGGYYYEGMDVWGQGTTVTVSS VL: SYVLTQPPSVSVAPGQTARITCGGSNIGSESVHWYQQKPGQAPVLVVYYESDRPSGIPERFSGSNSGNTATLTISRVEAGDEADYYCQVWHGESDHVVFGGGTKLTVLG
binds		Ab0355 (antibody, IgG4, V domains shown) VH: QVTLKESGPVLVKPTETLTLTCTVSGFSLNNARVGVSWIRQPPGKALEWLAHIFSNDEKSYSTSLKSRLTISKDTSKSQVVLTMTNMDPVDTATYYCARSVVTGGYYYEGMDVWGQGTTVTVSS VL: SYVLTQPPSVSVAPGQTARITCGGSNIGSESVHWYQQKPGQAPVLVVYEYSDRPSGIPERFSGSNSGNTATLTISRVEAGDEADYYCQVWEGSSDHVVFGGGTKLTVLG
binds		Ab0354 (antibody, IgG4, V domains shown) VH: QVTLKESGPVLVKPTETLTLTCTVSGFSLNNARVGVSWIRQPPGKALEWLAHIFSNDEKSYSTSLKSRLTISKDTSKSQVVLTMTNMDPVDTATYYCARSVVTGGYYYEGMDVWGQGTTVTVSS VL: SYVLTQPPSVSVAPGQTARITCGGSNIGSESVHWYQQKPGQAPVLVVYEESDRPSGIPERFSGSNSGNTATLTISRVEAGDEADYYCQVWHGSSDHVVFGGGTKLTVLG
